# Some of the results follow.
# The chains behind the UniProt entries cited, without tags or fusion partners. Where a name states a change or a piece, a line headed by the entry shows the natural chain unless it says otherwise.
# UniProt P11717, whole entry, looked up: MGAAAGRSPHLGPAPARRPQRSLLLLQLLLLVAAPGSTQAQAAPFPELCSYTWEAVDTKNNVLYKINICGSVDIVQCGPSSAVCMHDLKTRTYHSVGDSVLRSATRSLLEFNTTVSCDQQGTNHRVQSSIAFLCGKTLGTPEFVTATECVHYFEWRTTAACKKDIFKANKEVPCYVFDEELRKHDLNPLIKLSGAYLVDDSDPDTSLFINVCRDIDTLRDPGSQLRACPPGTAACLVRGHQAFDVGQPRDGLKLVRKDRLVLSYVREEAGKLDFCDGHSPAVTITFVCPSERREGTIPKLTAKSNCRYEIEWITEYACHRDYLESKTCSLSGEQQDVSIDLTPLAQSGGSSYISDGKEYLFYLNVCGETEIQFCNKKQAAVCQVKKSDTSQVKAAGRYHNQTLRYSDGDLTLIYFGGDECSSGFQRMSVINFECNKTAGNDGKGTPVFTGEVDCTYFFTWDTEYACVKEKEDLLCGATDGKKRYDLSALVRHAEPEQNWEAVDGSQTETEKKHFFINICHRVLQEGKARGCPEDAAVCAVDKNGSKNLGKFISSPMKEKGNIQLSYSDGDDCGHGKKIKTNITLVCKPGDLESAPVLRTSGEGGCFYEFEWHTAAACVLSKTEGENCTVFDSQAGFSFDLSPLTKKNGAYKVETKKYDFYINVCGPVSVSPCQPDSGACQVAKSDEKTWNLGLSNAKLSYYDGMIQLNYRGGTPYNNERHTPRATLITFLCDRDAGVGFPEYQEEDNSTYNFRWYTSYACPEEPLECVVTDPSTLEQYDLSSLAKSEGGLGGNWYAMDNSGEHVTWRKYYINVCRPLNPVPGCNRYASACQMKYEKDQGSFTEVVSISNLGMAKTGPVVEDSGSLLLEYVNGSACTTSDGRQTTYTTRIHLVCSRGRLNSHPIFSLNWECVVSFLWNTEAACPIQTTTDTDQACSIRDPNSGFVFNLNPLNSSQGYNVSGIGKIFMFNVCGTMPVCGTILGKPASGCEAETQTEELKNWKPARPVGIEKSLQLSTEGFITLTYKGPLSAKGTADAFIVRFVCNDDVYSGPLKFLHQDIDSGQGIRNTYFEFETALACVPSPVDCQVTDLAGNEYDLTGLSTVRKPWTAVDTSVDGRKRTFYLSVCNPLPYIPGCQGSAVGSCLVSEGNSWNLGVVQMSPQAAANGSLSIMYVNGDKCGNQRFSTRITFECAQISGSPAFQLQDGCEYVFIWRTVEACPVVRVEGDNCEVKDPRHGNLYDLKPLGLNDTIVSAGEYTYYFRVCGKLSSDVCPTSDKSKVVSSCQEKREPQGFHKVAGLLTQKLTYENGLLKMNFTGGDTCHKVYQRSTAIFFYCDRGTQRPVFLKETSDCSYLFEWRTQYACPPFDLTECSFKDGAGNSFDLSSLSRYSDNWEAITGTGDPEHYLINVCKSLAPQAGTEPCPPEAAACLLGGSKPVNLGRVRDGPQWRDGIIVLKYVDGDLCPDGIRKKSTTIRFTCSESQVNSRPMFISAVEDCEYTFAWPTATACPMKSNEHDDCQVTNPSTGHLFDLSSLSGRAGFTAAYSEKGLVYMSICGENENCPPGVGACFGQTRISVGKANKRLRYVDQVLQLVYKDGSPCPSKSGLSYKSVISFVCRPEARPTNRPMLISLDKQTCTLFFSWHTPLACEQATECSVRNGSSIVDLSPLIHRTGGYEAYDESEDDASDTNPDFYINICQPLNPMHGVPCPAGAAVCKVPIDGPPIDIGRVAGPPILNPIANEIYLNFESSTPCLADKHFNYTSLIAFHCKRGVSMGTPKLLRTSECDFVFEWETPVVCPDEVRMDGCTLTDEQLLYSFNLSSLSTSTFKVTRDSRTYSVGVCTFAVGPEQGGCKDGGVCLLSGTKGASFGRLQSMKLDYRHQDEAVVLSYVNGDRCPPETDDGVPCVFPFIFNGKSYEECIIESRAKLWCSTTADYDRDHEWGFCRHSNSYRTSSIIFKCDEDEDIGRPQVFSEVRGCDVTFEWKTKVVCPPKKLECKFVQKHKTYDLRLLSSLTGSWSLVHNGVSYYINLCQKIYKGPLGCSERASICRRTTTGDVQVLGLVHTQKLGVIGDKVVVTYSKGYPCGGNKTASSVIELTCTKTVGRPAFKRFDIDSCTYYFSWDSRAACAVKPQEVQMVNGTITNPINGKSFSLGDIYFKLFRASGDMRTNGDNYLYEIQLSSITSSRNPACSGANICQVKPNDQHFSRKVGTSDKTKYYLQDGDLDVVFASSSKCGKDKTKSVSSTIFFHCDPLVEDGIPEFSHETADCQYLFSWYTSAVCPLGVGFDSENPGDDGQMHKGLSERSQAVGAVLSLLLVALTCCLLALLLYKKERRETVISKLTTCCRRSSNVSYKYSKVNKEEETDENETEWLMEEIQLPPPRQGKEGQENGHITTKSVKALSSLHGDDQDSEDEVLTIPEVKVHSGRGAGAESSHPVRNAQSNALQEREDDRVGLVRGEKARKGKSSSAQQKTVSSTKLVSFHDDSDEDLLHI
# UniProt P51553: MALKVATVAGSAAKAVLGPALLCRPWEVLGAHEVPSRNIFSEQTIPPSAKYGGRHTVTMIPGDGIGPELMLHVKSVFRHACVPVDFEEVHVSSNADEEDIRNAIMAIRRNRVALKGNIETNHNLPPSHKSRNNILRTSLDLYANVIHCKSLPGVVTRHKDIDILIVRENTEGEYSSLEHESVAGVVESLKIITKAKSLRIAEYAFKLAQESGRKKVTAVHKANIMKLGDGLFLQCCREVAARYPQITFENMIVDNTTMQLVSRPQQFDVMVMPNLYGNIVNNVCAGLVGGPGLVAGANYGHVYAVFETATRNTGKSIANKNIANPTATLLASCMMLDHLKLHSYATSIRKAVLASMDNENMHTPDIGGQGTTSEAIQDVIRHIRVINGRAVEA
# UniProt Q92835: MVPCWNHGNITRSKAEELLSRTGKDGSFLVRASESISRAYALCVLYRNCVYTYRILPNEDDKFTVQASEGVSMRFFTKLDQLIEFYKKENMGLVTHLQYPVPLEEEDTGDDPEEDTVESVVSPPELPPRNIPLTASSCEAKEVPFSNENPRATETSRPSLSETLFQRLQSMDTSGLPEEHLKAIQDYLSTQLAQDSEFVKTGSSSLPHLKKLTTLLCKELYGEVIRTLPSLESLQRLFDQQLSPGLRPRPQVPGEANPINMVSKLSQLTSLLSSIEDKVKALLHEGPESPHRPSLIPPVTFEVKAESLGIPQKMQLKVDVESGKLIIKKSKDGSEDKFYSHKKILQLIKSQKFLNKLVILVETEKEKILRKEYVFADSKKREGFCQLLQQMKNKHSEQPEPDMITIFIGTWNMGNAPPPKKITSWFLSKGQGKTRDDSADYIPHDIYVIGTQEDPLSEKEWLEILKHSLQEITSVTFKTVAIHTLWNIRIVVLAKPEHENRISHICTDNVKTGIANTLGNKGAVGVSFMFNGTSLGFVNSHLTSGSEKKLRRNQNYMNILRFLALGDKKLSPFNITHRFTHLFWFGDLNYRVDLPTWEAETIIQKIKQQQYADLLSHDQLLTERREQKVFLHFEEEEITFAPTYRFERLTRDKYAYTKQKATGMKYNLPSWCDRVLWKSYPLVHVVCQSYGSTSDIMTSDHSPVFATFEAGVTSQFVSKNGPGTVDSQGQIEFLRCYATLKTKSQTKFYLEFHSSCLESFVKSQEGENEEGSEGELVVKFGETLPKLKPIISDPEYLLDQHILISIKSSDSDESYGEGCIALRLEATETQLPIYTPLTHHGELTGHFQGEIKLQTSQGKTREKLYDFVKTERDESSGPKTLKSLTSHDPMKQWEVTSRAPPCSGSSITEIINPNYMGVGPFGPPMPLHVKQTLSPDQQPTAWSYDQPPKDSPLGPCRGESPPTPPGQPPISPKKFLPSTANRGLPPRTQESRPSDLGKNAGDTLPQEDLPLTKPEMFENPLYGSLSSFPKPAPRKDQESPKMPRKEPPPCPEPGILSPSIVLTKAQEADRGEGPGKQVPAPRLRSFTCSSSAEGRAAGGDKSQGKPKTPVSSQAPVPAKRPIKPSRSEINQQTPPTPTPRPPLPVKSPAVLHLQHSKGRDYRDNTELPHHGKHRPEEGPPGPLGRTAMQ
# UniProt P80217: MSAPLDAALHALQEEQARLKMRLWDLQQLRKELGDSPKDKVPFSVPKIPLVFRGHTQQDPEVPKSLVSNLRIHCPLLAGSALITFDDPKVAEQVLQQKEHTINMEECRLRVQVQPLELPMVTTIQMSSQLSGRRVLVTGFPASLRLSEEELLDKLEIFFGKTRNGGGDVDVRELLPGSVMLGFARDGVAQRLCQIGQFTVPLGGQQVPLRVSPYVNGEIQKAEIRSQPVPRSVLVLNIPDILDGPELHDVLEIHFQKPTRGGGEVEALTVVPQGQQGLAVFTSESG
# UniProt Q13422: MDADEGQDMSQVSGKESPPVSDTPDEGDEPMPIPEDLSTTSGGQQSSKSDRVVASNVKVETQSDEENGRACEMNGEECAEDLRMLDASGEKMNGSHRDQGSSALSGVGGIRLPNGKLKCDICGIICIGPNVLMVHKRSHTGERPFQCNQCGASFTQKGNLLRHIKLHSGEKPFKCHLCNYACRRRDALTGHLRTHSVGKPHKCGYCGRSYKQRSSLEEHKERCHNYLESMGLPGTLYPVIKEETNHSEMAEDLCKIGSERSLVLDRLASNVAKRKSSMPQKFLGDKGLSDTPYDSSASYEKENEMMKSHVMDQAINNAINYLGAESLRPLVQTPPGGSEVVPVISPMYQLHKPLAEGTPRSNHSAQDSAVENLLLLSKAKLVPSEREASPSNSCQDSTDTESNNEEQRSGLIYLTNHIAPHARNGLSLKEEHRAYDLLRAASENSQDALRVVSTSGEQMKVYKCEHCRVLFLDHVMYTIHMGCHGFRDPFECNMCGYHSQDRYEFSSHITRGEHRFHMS
# UniProt Q13418: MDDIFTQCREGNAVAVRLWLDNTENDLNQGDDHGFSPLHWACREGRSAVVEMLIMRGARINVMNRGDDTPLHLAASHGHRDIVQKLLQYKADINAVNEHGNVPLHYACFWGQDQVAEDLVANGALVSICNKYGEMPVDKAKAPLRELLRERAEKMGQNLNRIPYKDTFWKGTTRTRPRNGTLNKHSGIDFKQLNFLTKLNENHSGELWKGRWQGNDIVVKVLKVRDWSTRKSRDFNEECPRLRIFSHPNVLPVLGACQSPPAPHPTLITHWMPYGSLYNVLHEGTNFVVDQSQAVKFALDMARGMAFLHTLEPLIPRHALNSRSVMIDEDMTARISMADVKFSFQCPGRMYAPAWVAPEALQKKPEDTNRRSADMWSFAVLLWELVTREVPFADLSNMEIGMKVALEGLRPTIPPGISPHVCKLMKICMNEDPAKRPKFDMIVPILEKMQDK
# UniProt P41252: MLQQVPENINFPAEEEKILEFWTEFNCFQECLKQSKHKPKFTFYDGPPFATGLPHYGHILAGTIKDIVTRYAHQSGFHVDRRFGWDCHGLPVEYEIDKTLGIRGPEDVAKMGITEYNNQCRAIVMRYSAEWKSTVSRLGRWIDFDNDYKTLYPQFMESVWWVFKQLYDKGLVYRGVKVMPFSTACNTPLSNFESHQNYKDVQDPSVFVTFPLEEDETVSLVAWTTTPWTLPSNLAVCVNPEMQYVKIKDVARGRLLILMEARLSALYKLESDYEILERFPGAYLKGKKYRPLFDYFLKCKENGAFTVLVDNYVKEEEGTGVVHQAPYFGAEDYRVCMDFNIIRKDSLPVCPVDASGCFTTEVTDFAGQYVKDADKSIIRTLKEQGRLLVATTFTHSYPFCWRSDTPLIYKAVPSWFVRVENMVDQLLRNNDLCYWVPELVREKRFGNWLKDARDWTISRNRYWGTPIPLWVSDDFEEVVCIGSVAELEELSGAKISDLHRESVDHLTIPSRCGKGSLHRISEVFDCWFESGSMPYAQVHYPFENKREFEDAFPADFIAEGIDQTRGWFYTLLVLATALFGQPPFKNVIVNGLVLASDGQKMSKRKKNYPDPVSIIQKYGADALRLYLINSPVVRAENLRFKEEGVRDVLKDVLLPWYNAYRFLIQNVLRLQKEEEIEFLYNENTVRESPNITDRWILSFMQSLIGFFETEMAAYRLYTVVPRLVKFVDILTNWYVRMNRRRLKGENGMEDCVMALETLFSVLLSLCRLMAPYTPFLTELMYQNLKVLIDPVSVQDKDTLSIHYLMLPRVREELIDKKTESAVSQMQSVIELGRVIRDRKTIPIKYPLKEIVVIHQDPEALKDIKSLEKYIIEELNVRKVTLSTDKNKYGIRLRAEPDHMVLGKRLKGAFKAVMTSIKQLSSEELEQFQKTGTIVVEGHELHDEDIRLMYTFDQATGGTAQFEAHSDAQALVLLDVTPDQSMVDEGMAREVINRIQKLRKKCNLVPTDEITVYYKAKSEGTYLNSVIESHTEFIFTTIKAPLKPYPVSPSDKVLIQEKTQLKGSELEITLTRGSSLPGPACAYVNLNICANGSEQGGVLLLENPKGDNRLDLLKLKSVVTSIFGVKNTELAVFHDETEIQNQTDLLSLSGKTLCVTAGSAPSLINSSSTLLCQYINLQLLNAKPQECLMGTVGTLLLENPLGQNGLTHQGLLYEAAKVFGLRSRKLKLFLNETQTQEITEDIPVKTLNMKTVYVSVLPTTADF
# Compound: Cc1cc(ccc1-c1ccccc1)C(=O)N1CCCN(CC1)C(=O)CCl [compound 10]
# Assay: probe-labelled cysteine peptide fold change vs DMSO (competition) (log2 fold change); higher = less target engagement (more negative = stronger competition)
# Settings: THP-1, incubation time: 4 h
# 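Note: competitive profiling in live THP-1 cells: cysteine peptides tagged with an iodoacetamide desthiobiotin (IA-DTB) probe, intensity after compound treatment relative to DMSO-treated cells.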
target,measurement,setting,value
ILF3_Q12906_203_CLAALASLR (UniProt Q12906),probe-labelled cysteine peptide fold change,10 µM,-0.0927
same,probe-labelled cysteine peptide fold change,50 µM,0.189
IMPDH1_P20839_215_GKLPIVNDCDELVAIIAR (UniProt P20839),probe-labelled cysteine peptide fold change,10 µM,0.00979
same,probe-labelled cysteine peptide fold change,50 µM,-0.0553
IMPDH2_P12268_173_DIDFLKEEEHDCFLEEIMTKR (UniProt P12268),probe-labelled cysteine peptide fold change,10 µM,-0.319
same,probe-labelled cysteine peptide fold change,50 µM,-1.01
IGF2R_P11717_420_YSDGDLTLIYFGGDECSSGFQR (UniProt P11717),probe-labelled cysteine peptide fold change,10 µM,-0.0885
same,probe-labelled cysteine peptide fold change,50 µM,0.13
IMPDH2_P12268_246_QLLCGAAIGTHEDDKYR (UniProt P12268),probe-labelled cysteine peptide fold change,10 µM,-0.388
same,probe-labelled cysteine peptide fold change,50 µM,-0.865
IDH3G_P51553_236_LGDGLFLQCCR (UniProt P51553),probe-labelled cysteine peptide fold change,10 µM,-0.0541
same,probe-labelled cysteine peptide fold change,50 µM,0.21
INPP5B_P32019_990_AQEFIHQFLCNPL (UniProt P32019),probe-labelled cysteine peptide fold change,10 µM,-0.214
same,probe-labelled cysteine peptide fold change,50 µM,-0.711
IGF2BP2_Q9Y6M1_255_PVTIHATPEGTSEACR (UniProt Q9Y6M1),probe-labelled cysteine peptide fold change,10 µM,0.175
same,probe-labelled cysteine peptide fold change,50 µM,0.236
IGF2R_P11717_1461_YVDGDLCPDGIR (UniProt P11717),probe-labelled cysteine peptide fold change,10 µM,-0.0631
same,probe-labelled cysteine peptide fold change,50 µM,0.00319
HUWE1_Q7Z6Z7_4099_VTYTINPSSHCNPNHLSYFK (UniProt Q7Z6Z7),probe-labelled cysteine peptide fold change,10 µM,-0.171
same,probe-labelled cysteine peptide fold change,50 µM,0.113
IFT81_Q8WYA0_569_YHYTNCMIK (UniProt Q8WYA0),probe-labelled cysteine peptide fold change,10 µM,0.0851
same,probe-labelled cysteine peptide fold change,50 µM,-0.0457
IFIT2_P09913_140_IESPELDCEEGWTR (UniProt P09913),probe-labelled cysteine peptide fold change,10 µM,-0.196
same,probe-labelled cysteine peptide fold change,50 µM,-0.414
IFT27_Q9BW83_166_EMENFEAPFHCLAK (UniProt Q9BW83),probe-labelled cysteine peptide fold change,10 µM,-0.102
same,probe-labelled cysteine peptide fold change,50 µM,-0.227
IK_Q13123_263_ADCPTMEAQTTLTTNDIVISK (UniProt Q13123),probe-labelled cysteine peptide fold change,10 µM,-0.229
same,probe-labelled cysteine peptide fold change,50 µM,0.11
IFIH1_Q9BYX4_138_CMEEELLTIEDR (UniProt Q9BYX4),probe-labelled cysteine peptide fold change,10 µM,0.00756
same,probe-labelled cysteine peptide fold change,50 µM,-0.118
INPP5D_Q92835_1088_SFTCSSSAEGR (UniProt Q92835),probe-labelled cysteine peptide fold change,10 µM,-0.37
same,probe-labelled cysteine peptide fold change,50 µM,-0.603
IFI35_P80217_193_LCQIGQFTVPLGGQQVPLR (UniProt P80217),probe-labelled cysteine peptide fold change,10 µM,0.247
same,probe-labelled cysteine peptide fold change,50 µM,0.762
IL17RA_Q96F46_469_CDHGKPVGDLFTAAMNMILPDFK (UniProt Q96F46),probe-labelled cysteine peptide fold change,10 µM,0.169
same,probe-labelled cysteine peptide fold change,50 µM,-0.0355
HUWE1_Q7Z6Z7_790_FVESILSNNTTDDHCQEFVNQK (UniProt Q7Z6Z7),probe-labelled cysteine peptide fold change,10 µM,-0.182
same,probe-labelled cysteine peptide fold change,50 µM,-0.286
HUWE1_Q7Z6Z7_699_YICQKPSIQK (UniProt Q7Z6Z7),probe-labelled cysteine peptide fold change,10 µM,-0.306
same,probe-labelled cysteine peptide fold change,50 µM,-0.513
INPP5A_Q14642_381_VVTYDHIGPNVCMGDHKPVFLAFR (UniProt Q14642),probe-labelled cysteine peptide fold change,10 µM,-0.257
same,probe-labelled cysteine peptide fold change,50 µM,-0.454
IL1RAP_Q9NPH3_24_CDDWGLDTMR (UniProt Q9NPH3),probe-labelled cysteine peptide fold change,10 µM,-0.27
same,probe-labelled cysteine peptide fold change,50 µM,-0.186
IKZF1_Q13422_182_CHLCNYACR (UniProt Q13422),probe-labelled cysteine peptide fold change,10 µM,0.0087
same,probe-labelled cysteine peptide fold change,50 µM,0.111
ILK_Q13418_346_FSFQCPGR (UniProt Q13418),probe-labelled cysteine peptide fold change,10 µM,0.0195
same,probe-labelled cysteine peptide fold change,50 µM,-0.319
INPP5D_Q92835_138_NIPLTASSCEAK (UniProt Q92835),probe-labelled cysteine peptide fold change,10 µM,-0.359
same,probe-labelled cysteine peptide fold change,50 µM,-0.355
HUWE1_Q7Z6Z7_2106_EDCSVLAFVLDHLLPHTQNAEDK (UniProt Q7Z6Z7),probe-labelled cysteine peptide fold change,10 µM,0.0641
same,probe-labelled cysteine peptide fold change,50 µM,0.115
IFI16_Q16666_191_CQVTPR (UniProt Q16666),probe-labelled cysteine peptide fold change,10 µM,-0.111
same,probe-labelled cysteine peptide fold change,50 µM,-0.291
IDH3G_P51553_333_NIANPTATLLASCMMLDHLK (UniProt P51553),probe-labelled cysteine peptide fold change,10 µM,0.0642
same,probe-labelled cysteine peptide fold change,50 µM,0.0528
IGF2R_P11717_288_EEAGKLDFCDGHSPAVTITFVCPSER (UniProt P11717),probe-labelled cysteine peptide fold change,10 µM,-0.0322
same,probe-labelled cysteine peptide fold change,50 µM,-0.0881
INPP5D_Q92835_819_SSDSDESYGEGCIALR (UniProt Q92835),probe-labelled cysteine peptide fold change,10 µM,-0.0234
same,probe-labelled cysteine peptide fold change,50 µM,0.162
IMPACT_Q9P2X3_137_KKTEEEDVECEDDLILACQPESSLK (UniProt Q9P2X3),probe-labelled cysteine peptide fold change,10 µM,0.00493
same,probe-labelled cysteine peptide fold change,50 µM,-0.493
IARS_P41252_433_NNDLCYWVPELVR (UniProt P41252),probe-labelled cysteine peptide fold change,10 µM,0.262
same,probe-labelled cysteine peptide fold change,50 µM,0.366
IDH3A_P50213_127_TFDLYANVRPCVSIEGYK (UniProt P50213),probe-labelled cysteine peptide fold change,10 µM,0.145
same,probe-labelled cysteine peptide fold change,50 µM,0.0551
IFT172_Q9UG01_1686_ALPCLITGYPILR (UniProt Q9UG01),probe-labelled cysteine peptide fold change,10 µM,-0.241
same,probe-labelled cysteine peptide fold change,50 µM,-0.159
IKZF1_Q13422_394_EASPSNSCQDSTDTESNNEEQR (UniProt Q13422),probe-labelled cysteine peptide fold change,10 µM,-0.188
same,probe-labelled cysteine peptide fold change,50 µM,0.211
ILK_Q13418_8_MDDIFTQCR (UniProt Q13418),probe-labelled cysteine peptide fold change,10 µM,-0.0759
same,probe-labelled cysteine peptide fold change,50 µM,0.389
IGF2R_P11717_1975_GCDVTFEWK (UniProt P11717),probe-labelled cysteine peptide fold change,10 µM,-0.034
same,probe-labelled cysteine peptide fold change,50 µM,-0.0919
IKBKG_Q9Y6K9_54_CLEENQELRDAIR (UniProt Q9Y6K9),probe-labelled cysteine peptide fold change,10 µM,0.059
same,probe-labelled cysteine peptide fold change,50 µM,-0.152
IGF2R_P11717_1957_CDEDEDIGRPQVFSEVR (UniProt P11717),probe-labelled cysteine peptide fold change,10 µM,-0.0517
same,probe-labelled cysteine peptide fold change,50 µM,-0.135
IARS_P41252_526_ISEVFDCWFESGSMPYAQVHYPFENK (UniProt P41252),probe-labelled cysteine peptide fold change,10 µM,0.25
same,probe-labelled cysteine peptide fold change,50 µM,0.642
IGF2R_P11717_1516_SNEHDDCQVTNPSTGHLFDLSSLSGR (UniProt P11717),probe-labelled cysteine peptide fold change,10 µM,-0.253
same,probe-labelled cysteine peptide fold change,50 µM,-0.076
IKBKB_O14920_524_EMEQAVELCGR (UniProt O14920),probe-labelled cysteine peptide fold change,10 µM,0.0407
same,probe-labelled cysteine peptide fold change,50 µM,0.0999

# Shown bar-delimited: entries from further up.
target | measurement | setting | value
ILF3_Q12906_203_CLAALASLR (UniProt Q12906) | probe-labelled cysteine peptide fold change | 10 µM | -0.0927
IFT172_Q9UG01_1686_ALPCLITGYPILR (UniProt Q9UG01) | probe-labelled cysteine peptide fold change | 10 µM | -0.241
ILK_Q13418_8_MDDIFTQCR (UniProt Q13418) | probe-labelled cysteine peptide fold change | 50 µM | 0.389

# From the supplement of paper PMC12067093, “Discovery and optimisation of a covalent ligand for TRIM25 and its application to targeted protein ubiquitination” (Chemical Science, 2025)
